Results from patent publication US20220332795A1.
Changes are numbered by the printed parent chain. Results are given in words; binding and its absence hold for the method and conditions named. Some entries that bind do so weakly or less than the wild type. Blank lines part the entries; values can stand above or below the binder they belong to.

Amino acid sequences for entries named in this document (tags omitted). A change or cut given only in a name is not applied to a line headed by its entry. Chains listed by the source or under a name are the forms on record and can include a tag or linker.
human CD71 (transferrin receptor 1) extracellular domain, recombinant, biotinylated (P02786, form named): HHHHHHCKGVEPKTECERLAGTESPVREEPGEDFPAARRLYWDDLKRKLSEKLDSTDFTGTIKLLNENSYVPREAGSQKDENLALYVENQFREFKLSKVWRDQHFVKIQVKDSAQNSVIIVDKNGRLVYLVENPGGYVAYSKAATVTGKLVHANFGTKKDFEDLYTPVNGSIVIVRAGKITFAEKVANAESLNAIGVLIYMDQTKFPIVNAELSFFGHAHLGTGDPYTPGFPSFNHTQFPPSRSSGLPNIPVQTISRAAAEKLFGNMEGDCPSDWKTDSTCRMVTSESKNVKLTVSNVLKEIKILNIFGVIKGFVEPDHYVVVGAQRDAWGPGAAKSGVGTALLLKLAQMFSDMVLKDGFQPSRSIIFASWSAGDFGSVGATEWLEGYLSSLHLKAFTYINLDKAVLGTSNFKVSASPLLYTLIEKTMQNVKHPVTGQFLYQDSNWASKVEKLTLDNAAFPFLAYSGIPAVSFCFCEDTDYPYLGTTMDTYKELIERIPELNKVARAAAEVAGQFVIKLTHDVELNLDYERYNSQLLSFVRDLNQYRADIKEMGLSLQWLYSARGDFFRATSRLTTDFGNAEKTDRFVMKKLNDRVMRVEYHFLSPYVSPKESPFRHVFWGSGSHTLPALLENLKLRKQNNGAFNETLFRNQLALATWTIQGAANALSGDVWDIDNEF

Target: human CD71 (transferrin receptor 1) extracellular domain, recombinant, biotinylated (human) (UniProt P02786)
Assay: hit of apical domain panning; heading of the sequence table

- binding: binds
B1: FN3 domain of SEQ ID NO: 99 (designed binder)
chain: MLPAPKNLVVSRVTEDSARLSWTAPDAAFDSFFIPYAEPSPTGEAIVLTVPGSERSYDLTGLKPGTEYSVLIHGVKGGHLSDPLSVIFTT

- binding: binds
B2: FN3 domain of SEQ ID NO: 97 (designed binder)
chain: MLPAPKNLVVSRVTEDSARLSWTAPDAAFDSFHIWYEEETTIGEAIYLHVPGSERSYDLTGLKPGTEYEVHITGVKGGPYSRPLFANFTT

- binding: binds
B5: FN3 domain of SEQ ID NO: 95 (designed binder)
chain: MLPAPKNLVVSEVTEDSARLSWQGVARAFDSFLITYREQIFAGEVIVLTVPGSERSYDLTGLKPGTEYPVWIQGVKGGSPSAPLSAEFTT

Further lines, the binder ahead of its results:

B3: FN3 domain of SEQ ID NO: 94 (designed binder)
chain: B5 chain with E87I
- binding: binds

B4: FN3 domain of SEQ ID NO: 102 (designed binder)
chain: B5 chain with E12R
- binding: binds

B6: FN3 domain of SEQ ID NO: 96 (designed binder)
chain: MSLPAPKNLVVSRVTEDSARLSWTAPDAAFDSFPIAYLEVFYEGEAIVLTVPGSERSYDLTGLKPGTEYQVPIEGVKGGAMSLPLSAIFTT
- binding: binds

B7: FN3 domain of SEQ ID NO: 100 (designed binder)
chain: MLPAPKNLVVSRVTEDSARLSWTAPDAAFDSFYIWYEEVMYLGEAIVLTVPGSERSYDLTGLKPGTEYNVPIPGVKGGHSSPPLSAIFTT
- binding: binds
